Results from US20130096104A1, “IMIDAZOPYRIDINE COMPOUNDS, COMPOSITIONS AND METHODS OF USE” (GENENTECH, INC., priority 2010, published 2013).
Some results were stated once for a whole list of compounds, not compound by compound.

Biological target: T1, TYK2 kinase domain (Homo sapiens, UniProt P29597)
T1 construct: The activity of the isolated JAK1, JAK2 or TYK2 kinase domain was measured
T1 sequence (P29597 897-1176 limits assumed): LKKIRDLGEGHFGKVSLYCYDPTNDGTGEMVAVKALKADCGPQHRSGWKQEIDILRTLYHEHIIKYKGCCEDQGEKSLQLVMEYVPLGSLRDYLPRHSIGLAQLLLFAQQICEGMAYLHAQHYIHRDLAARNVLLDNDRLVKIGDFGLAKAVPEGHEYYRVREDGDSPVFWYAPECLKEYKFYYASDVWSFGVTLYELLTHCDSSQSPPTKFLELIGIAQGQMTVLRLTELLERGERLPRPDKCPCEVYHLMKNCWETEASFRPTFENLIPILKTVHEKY
Assay: TYK2 inhibition assay (Example A, Caliper LabChip peptide phosphorylation)
Format: biochemical
Details: tested in the above assays; less than about

| SMILES | IC50 |
| --- | --- |
| Cc1cc(Nc2nccc3nc(-c4cc(F)ccc4Cl)[nH]c23)ncn1 [Example 299, 2-(2-chloro-5-fluorophenyl)-N-(6-methylpyrimidin-4-yl)-3H-imidazo[4,5-c]pyridin-4-amine] | < 5 µM |
| Cc1cc(Nc2nccc3nc(-c4cccc(F)c4Cl)[nH]c23)ncn1 [Example 300, 2-(2-chloro-3-fluorophenyl)-N-(6-methylpyrimidin-4-yl)-3H-imidazo[4,5-c]pyridin-4-amine] | < 5 µM |
| Cc1cc(Nc2nccc3nc(-c4c(C)cccc4Cl)[nH]c23)ncn1 [Example 301, 2-(2-chloro-6-methylphenyl)-N-(6-methylpyrimidin-4-yl)-3H-imidazo[4,5-c]pyridin-4-amine] | < 5 µM |
| COc1cccc(Cl)c1-c1nc2ccnc(Nc3cc(C)ncn3)c2[nH]1 [Example 302, 2-(2-chloro-6-methoxyphenyl)-N-(6-methylpyrimidin-4-yl)-3H-imidazo[4,5-c]pyridin-4-amine] | < 5 µM |
| Cc1cc(Nc2nccc3nc(-c4c(Cl)cccc4C(F)(F)F)[nH]c23)ncn1 [Example 303, 2-(2-chloro-6-(trifluoromethyl)-phenyl)-N-(6-methylpyrimidin-4-yl)-3H-imidazo[4,5-c]pyridin-4-amine] | < 5 µM |
| Cc1cc(Nc2nccc3nc(-c4cc(Cl)ccc4Cl)[nH]c23)ncn1 [Example 304, 2-(2,5-dichlorophenyl)-N-(6-methylpyrimidin-4-yl)-3H-imidazo[4,5-c]pyridin-4-amine] | < 5 µM |
| Cc1cc(Nc2nccc3nc(-c4ccc(Cl)cc4Cl)[nH]c23)ncn1 [Example 305, 2-(2,4-dichlorophenyl)-N-(6-methylpyrimidin-4-yl)-3H-imidazo[4,5-c]pyridin-4-amine] | < 5 µM |
| Cc1cc(Nc2nccc3nc(-c4cccc(C)c4Cl)[nH]c23)ncn1 [Example 306, 2-(2-chloro-3-methylphenyl)-N-(6-methylpyrimidin-4-yl)-3H-imidazo[4,5-c]pyridin-4-amine] | < 5 µM |
| Cc1cc(Nc2nccc3nc(-c4cccc(Cl)c4Cl)[nH]c23)ncn1 [Example 307, 2-(2,3-dichlorophenyl)-N-(6-methylpyrimidin-4-yl)-3H-imidazo[4,5-c]pyridin-4-amine] | < 5 µM |
| Cc1cc(Nc2nccc3nc(-c4cc(Br)ccc4Cl)[nH]c23)ncn1 [Example 308, 2-(5-bromo-2-chlorophenyl)-N-(6-methylpyrimidin-4-yl)-3H-imidazo[4,5-c]pyridin-4-amine] | < 5 µM |
| CC(C)NC(=O)Nc1nccc2nc(-c3c(Cl)cccc3Cl)[nH]c12 [Example 309, 1-(2-(2,6-dichlorophenyl)-3H-imidazo[4,5-c]pyridin-4-yl)-3-isopropylurea] | < 5 µM |
| CC(C)NC(=O)Nc1nccc2nc(-c3c(F)cccc3Cl)[nH]c12 [Example 310, 1-(2-(2-chloro-6-fluorophenyl)-3H-imidazo[4,5-c]pyridin-4-yl)-3-isopropylurea] | < 5 µM |
| CCNC(=O)Nc1nccc2nc(-c3c(F)cccc3Cl)[nH]c12 [Example 311, 1-(2-(2-chloro-6-fluorophenyl)-3H-imidazo[4,5-c]pyridin-4-yl)-3-ethylurea] | < 5 µM |
| N#Cc1cc(Cl)c(-c2nc3ccnc(Nc4cc(CO)ncn4)c3[nH]2)c(Cl)c1 [Example 312, 3,5-dichloro-4-(4-(6-(hydroxymethyl)pyrimidin-4-ylamino)-3H-imidazo[4,5-c]pyridin-2-yl)benzonitrile] | < 5 µM |
| Cc1cc(Nc2nccc3nc(-c4ccc(C#N)cc4Cl)[nH]c23)ncn1 [Example 313, 3-chloro-4-(4-(6-methylpyrimidin-4-ylamino)-3H-imidazo[4,5-c]pyridin-2-yl)benzonitrile] | < 5 µM |
| Cc1cc(Nc2nccc3nc(-c4cc(C#N)ccc4Cl)[nH]c23)ncn1 [Example 314, 4-chloro-3-(4-(6-methylpyrimidin-4-ylamino)-3H-imidazo[4,5-c]pyridin-2-yl)benzonitrile] | < 5 µM |
| Cc1cc(Nc2nccc3nc(-c4cc(CO)ccc4Cl)[nH]c23)ncn1 [Example 315, (4-chloro-3-(4-(6-methylpyrimidin-4-ylamino)-3H-imidazo[4,5-c]pyridin-2-yl)phenyl)methanol] | < 5 µM |
| Cc1cc(Nc2nccc3nc(-c4cc(CN5CCOCC5)ccc4Cl)[nH]c23)ncn1 [Example 316, 2-(2-chloro-5-(morpholinomethyl)phenyl)-N-(6-methylpyrimidin-4-yl)-3H-imidazo[4,5-c]pyridin-4-amine] | < 5 µM |
| CC(C)(C)OC(=O)NCC(=O)Nc1nccc2nc(-c3c(F)cccc3Cl)[nH]c12 [Example 317, tert-butyl 2-(2-(2-chloro-6-fluorophenyl)-3H-imidazo[4,5-c]pyridin-4-ylamino)-2-oxoethylcarbamate] | < 5 µM |

| SMILES | IC50 |
| --- | --- |
| NC(=O)c1cc(Cl)c(-c2nc3ccnc(Nc4cc(CO)ncn4)c3[nH]2)c(Cl)c1 [Example 318, 3,5-dichloro-4-(4-(6-(hydroxymethyl)-pyrimidin-4-ylamino)-3H-imidazo[4,5-c]pyridin-2-yl)benzamide] | < 5 µM |
| Cc1cc(Cl)c(-c2nc3ccnc(Nc4cc(C)ncn4)c3[nH]2)c(Cl)c1 [Example 319, 2-(2,6-dichloro-4-methylphenyl)-N-(6-methylpyrimidin-4-yl)-3H-imidazo[4,5-c]pyridin-4-amine] | < 5 µM |
| CSc1cc(Cl)c(-c2nc3ccnc(Nc4cc(C)ncn4)c3[nH]2)c(Cl)c1 [Example 320, 2-(2,6-dichloro-4-(methylthio)phenyl)-N-(6-methylpyrimidin-4-yl)-3H-imidazo[4,5-c]pyridin-4-amine] | < 5 µM |
| Cc1cc(Nc2nccc3nc(-c4c(Cl)ccc(F)c4Cl)[nH]c23)ncn1 [Example 321, 2-(2,6-dichloro-3-fluorophenyl)-N-(6-methylpyrimidin-4-yl)-3H-imidazo[4,5-c]pyridin-4-amine] | < 5 µM |
| NC(=O)c1cc(Nc2nccc3nc(-c4c(Cl)cccc4Cl)[nH]c23)ncn1 [Example 322, 6-(2-(2,6-dichlorophenyl)-3H-imidazo[4,5-c]pyridin-4-ylamino)pyrimidine-4-carboxamide] | < 5 µM |
| CNC(=O)c1cc(Nc2nccc3nc(-c4c(Cl)cccc4Cl)[nH]c23)ncn1 [Example 323, 6-(2-(2,6-dichlorophenyl)-3H-imidazo[4,5-c]pyridin-4-ylamino)-N-methylpyrimidine-4-carboxamide] | < 5 µM |
| O=C(c1cc(Nc2nccc3nc(-c4c(Cl)cccc4Cl)[nH]c23)ncn1)N1CCOCC1 [Example 324, (6-(2-(2,6-dichlorophenyl)-3H-imidazo[4,5-c]pyridin-4-ylamino)pyrimidin-4-yl)(morpholino)-methanone] | < 5 µM |
| NC(=O)c1cc(Nc2nccc3nc(-c4c(F)cccc4Cl)[nH]c23)ncn1 [Example 325, 6-(2-(2-chloro-6-fluorophenyl)-3H-imidazo[4,5-c]pyridin-4-ylamino)pyrimidine-4-carboxamide] | < 5 µM |
| CNC(=O)c1cc(Nc2nccc3nc(-c4c(F)cccc4Cl)[nH]c23)ncn1 [Example 326, 6-(2-(2-chloro-6-fluorophenyl)-3H-imidazo[4,5-c]pyridin-4-ylamino)-N-methylpyrimidine-4-carboxamide] | < 5 µM |
| O=C(c1cc(Nc2nccc3nc(-c4c(F)cccc4Cl)[nH]c23)ncn1)N1CCOCC1 [Example 327, (6-(2-(2-chloro-6-fluorophenyl)-3H-imidazo[4,5-c]pyridin-4-ylamino)pyrimidin-4-yl)(morpholino)-methanone] | < 5 µM |
| CNC(=O)c1ccc(Nc2nccc3nc(-c4c(Cl)cccc4Cl)[nH]c23)nn1 [Example 328, 6-(2-(2,6-dichlorophenyl)-3H-imidazo[4,5-c]pyridin-4-ylamino)-N-methylpyridazine-3-carboxamide] | < 5 µM |
| O=C(c1ccc(Nc2nccc3nc(-c4c(Cl)cccc4Cl)[nH]c23)nn1)N1CCOCC1 [Example 329, (6-(2-(2,6-dichlorophenyl)-3H-imidazo[4,5-c]pyridin-4-ylamino)pyridazin-3-yl)(morpholino)-methanone] | < 5 µM |
| CNC(=O)c1ccc(Nc2nccc3nc(-c4c(F)cccc4Cl)[nH]c23)nn1 [Example 330, 6-(2-(2-chloro-6-fluorophenyl)-3H-imidazo[4,5-c]pyridin-4-ylamino)-N-methylpyridazine-3-carboxamide] | < 5 µM |
| Cc1cc(Nc2nccc3nc(-c4c(O)cccc4Cl)n(C)c23)ncn1 [Example 331, 3-chloro-2-(3-methyl-4-(6-methylpyrimidin-4-ylamino)-3H-imidazo[4,5-c]pyridin-2-yl)phenol] | < 5 µM |
| Cc1cc(Nc2nccc3nc(-c4ccccc4Cl)[nH]c23)ncn1 [Example 332, 2-(2-chlorophenyl)-N-(6-methylpyrimidin-4-yl)-3H-imidazo[4,5-c]pyridin-4-amine] | < 5 µM |
| N#Cc1cc(Cl)c(-c2nc3ncnc(Nc4cc(C(F)(F)F)ncn4)c3[nH]2)c(Cl)c1 [Example 333, 3,5-dichloro-4-(6-(6-(trifluoromethyl)-pyrimidin-4-ylamino)-7H-purin-8-yl)benzonitrile] | < 5 µM |
| FC(F)(F)c1cc(Nc2ncnc3nc(-c4c(Cl)cccc4Cl)[nH]c23)ncn1 [Example 334, 8-(2,6-dichlorophenyl)-N-(6-(trifluoromethyl)-pyrimidin-4-yl)-7H-purin-6-amine] | < 5 µM |
| N#Cc1cc(Nc2ncnc3nc(-c4c(F)cccc4Cl)[nH]c23)ncn1 [Example 335, 6-(8-(2-chloro-6-fluorophenyl)-7H-purin-6-ylamino)pyrimidine-4-carbonitrile] | < 5 µM |
| Cc1cnc(Nc2ncnc3nc(-c4c(F)cccc4Cl)[nH]c23)cn1 [Example 336, 8-(2-chloro-6-fluorophenyl)-N-(5-methylpyrazin-2-yl)-7H-purin-6-amine] | < 5 µM |
